Consider 2 substances from publication PMC5059733.

The chains behind the UniProt entries cited, without tags or fusion partners.
UniProt O94759: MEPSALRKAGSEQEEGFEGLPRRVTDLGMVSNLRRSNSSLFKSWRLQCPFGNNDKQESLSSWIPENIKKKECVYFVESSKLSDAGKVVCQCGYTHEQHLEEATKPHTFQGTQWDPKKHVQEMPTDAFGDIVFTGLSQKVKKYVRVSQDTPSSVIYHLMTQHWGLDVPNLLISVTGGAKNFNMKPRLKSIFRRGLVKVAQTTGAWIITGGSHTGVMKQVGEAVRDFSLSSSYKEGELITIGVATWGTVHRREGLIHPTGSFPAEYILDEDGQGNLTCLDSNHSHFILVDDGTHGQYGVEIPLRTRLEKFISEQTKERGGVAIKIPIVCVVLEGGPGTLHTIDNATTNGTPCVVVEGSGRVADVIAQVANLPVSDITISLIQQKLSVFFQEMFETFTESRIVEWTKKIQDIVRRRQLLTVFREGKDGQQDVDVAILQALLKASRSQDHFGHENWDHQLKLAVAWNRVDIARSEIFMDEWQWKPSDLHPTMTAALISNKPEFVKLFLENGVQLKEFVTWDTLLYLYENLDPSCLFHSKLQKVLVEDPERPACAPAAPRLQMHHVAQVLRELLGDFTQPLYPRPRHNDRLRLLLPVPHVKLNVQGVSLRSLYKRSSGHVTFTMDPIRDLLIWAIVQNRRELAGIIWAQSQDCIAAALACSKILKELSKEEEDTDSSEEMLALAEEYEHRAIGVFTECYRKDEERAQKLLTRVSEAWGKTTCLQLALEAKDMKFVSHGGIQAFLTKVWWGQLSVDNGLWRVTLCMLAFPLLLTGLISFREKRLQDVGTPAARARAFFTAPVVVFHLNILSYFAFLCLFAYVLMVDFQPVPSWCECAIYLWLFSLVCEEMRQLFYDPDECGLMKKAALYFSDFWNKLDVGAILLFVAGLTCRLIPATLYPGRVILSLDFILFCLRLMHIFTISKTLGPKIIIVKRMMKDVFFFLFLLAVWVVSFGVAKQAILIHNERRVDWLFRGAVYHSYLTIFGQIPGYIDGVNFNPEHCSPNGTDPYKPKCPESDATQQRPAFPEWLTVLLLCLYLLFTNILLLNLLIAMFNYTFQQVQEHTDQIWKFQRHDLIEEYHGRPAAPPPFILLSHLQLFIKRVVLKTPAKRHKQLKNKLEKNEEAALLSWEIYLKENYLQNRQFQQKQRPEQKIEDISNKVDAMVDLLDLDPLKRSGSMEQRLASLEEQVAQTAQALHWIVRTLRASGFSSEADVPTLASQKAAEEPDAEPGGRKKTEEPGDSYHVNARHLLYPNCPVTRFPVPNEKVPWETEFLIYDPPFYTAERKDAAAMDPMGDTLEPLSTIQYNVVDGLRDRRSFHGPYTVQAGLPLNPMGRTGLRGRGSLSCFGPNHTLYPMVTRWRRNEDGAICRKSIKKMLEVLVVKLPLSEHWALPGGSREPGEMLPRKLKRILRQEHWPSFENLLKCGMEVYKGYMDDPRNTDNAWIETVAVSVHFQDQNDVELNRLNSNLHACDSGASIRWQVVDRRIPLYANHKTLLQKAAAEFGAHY
UniProt P14598: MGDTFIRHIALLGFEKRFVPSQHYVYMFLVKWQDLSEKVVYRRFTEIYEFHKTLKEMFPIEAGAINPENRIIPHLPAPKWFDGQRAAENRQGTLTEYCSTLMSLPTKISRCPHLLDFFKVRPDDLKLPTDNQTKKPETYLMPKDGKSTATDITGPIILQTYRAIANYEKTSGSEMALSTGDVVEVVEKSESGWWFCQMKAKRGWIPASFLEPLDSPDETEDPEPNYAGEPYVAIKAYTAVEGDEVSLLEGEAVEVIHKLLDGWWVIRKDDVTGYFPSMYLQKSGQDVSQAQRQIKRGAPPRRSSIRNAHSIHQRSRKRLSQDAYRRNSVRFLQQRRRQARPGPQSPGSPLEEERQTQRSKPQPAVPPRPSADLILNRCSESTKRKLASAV

Results are given in words; binding and its absence hold for the method and conditions named. In cells and extracts the contact can be indirect. Some binding calls cover weakened binding; strength is not graded here.

The target of this test is Transient receptor potential melastatin-2 (TRPM2) (human (endogenous in U937)) (UniProt O94759). The test is described as follows: co-IP; endogenous proteins in U937 lysate; cells treated with 10, 20 or 30 mM glucose for 48 h; precipitated with anti-p47 phox or anti-TRPM2 antibody overnight at 4 °C and Protein A agarose beads; blotted with anti-p47 phox, anti-phospho-Ser345-p47 phox or anti-TRPM2.

For “phosphorylated-Ser345 p47 phox (from UniProt P14598 1-390)”, the binding entry is listed as “binds”.
Turning to p47 phox (from UniProt P14598 1-390), the binding result is “binds”.
